No constants are given. Whether binding was seen depends on the method and setting. Binding can be weak; no strength is given.
Molecular target: T1, synthetic CXCR2 C-tail peptide (last 13 residues with a biotin-conjugate at N-terminus) (human) (UniProt P25025)
T1 sequence (peptide, biotin-conjugate at N-terminus): FVGSSSGHTSTTL
Assay: pull-down; biotin pull-down: purified GST-PDZ domains or GST alone mixed with the biotinylated CXCR2 C-tail peptide in PBS, 0.2% Triton X-100 at 20 °C for 1 h, Streptavidin beads, anti-GST immunoblot; both purified

Amino acid sequences for entries named in this document (tags omitted). A change or cut given only in a name is not applied to a line headed by its entry.
UniProt P25025: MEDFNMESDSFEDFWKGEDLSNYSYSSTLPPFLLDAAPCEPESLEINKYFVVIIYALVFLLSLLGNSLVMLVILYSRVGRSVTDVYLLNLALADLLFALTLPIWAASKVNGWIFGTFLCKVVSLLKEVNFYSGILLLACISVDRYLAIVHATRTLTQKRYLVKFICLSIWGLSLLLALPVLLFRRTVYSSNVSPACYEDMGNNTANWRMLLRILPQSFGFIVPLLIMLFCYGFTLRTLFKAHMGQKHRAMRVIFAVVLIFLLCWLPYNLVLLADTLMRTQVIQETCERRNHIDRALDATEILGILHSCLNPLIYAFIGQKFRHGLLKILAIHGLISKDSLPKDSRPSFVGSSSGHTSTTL

Row | binding | Substance
1 | binds | GST fusion protein of NHERF1 PDZ1 domain (human) (domain or fragment)
2 | binds | GST fusion protein of NHERF1 PDZ2 domain (human) (domain or fragment)

From paper PMC3788737, “Structural Insights into Neutrophilic Migration Revealed by the Crystal Structure of the Chemokine Receptor CXCR2 in Complex with the First PDZ Domain of NHERF1” (PLoS ONE, 2013)
